Test results published in PubChem BioAssay AID720504 (National Center for Advancing Translational Sciences (NCATS), 2013).
Several values for one entry are separate records, joined by “and”; a condition that tells them apart may be missing. Equal entries are not always repeated. About 10,000 (2.8%) of roughly 360,000 compounds were called active. Inconclusive means that the source gave no clear call. Such entries were picked first, then a sample of the others. Calls follow the shape of the dose curve; as a rule, active = well fitted inhibition curve with a large enough effect; inconclusive = small, poorly fitted or top-dose-only effect; inactive = flat fitted curve, though single readings scatter. Where the call is inconclusive, the potency comes from a doubtful curve fit.

Amino acid sequences for entries named in this document (tags omitted).
UniProt P53350, whole entry, looked up: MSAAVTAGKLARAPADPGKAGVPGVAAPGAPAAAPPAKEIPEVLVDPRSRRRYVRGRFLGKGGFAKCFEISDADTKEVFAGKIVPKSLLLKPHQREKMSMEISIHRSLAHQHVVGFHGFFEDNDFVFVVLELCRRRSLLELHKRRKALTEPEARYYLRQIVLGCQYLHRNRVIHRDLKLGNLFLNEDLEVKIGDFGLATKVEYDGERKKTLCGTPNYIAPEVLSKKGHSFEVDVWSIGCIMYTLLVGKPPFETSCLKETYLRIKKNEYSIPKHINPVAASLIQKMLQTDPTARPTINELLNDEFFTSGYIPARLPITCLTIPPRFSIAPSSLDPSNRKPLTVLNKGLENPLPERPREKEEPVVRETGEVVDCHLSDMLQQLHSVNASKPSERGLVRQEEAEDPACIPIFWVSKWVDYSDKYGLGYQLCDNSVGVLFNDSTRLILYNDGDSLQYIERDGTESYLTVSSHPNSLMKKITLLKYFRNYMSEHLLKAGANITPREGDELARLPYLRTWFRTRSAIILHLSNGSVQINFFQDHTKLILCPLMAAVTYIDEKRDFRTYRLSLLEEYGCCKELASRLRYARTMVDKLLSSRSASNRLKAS

Target: Serine/threonine-protein kinase PLK1 (Homo sapiens) (UniProt P53350)
Experiment: qHTS for Inhibitors of PLK1-PDB (polo-like kinase 1 - polo-box domain): Primary Screen; also: nearly all actives have a fitted effect of over 65% in size; as to max response, negative = inhibition: series mostly up to about 57 µM
Settings: Plk1 PBD binding of FITC phosphopeptide, fluorescence polarization
From the text: The polo-like kinase 1 (Plk1) is a member of a conserved subfamily of serine / threonine protein kinases that plays a pivotal roles in cell proliferation. It has a C-terminal non-catalytic region called the polo-box domain (PBD) that plays a crucial role in the subcellular localization of the Plk1. […] Furthermore, depletion of the overexpressed Plk1 by RNAi efficiently induces apoptotic cell death in cancer and reduces tumor growth in mouse xenograft models. Thus, targeting Plk1 is an appealing strategy for anti-cancer therapy. Therefore, this project aimed to screen the Molecular Libraries Small Molecule Repository (MLSMR) using a novel approach to find inhibitors that target the Plk1 PBD instead of the conventional N-terminal catalytic domain. This project employed a fluorescence polarization (FP) assay using a FITC-conjugated phospho-9-mer (p-9-mer) peptide and purified human Plk1 PBD protein. The identified small molecule inhibitors of Plk1 PBD can then further be developed into useful tools for biomedical and clinical research that complements or replaces current relevant disease therapy. NIH Chemical Genomics Center [NCGC] NIH Molecular Libraries Probe Centers Network [MLPCN] MLPCN Grant: MH100728 Assay Submitter (PI): Kyung Lee, NCI
Four microliter of 25 nM FITC-p-9-mer + 60 nM Plk1 PBD in buffer solution (final concentrations 25 nM and 60 nM respectively) or 4 uL of 25 nM FITC-p-9-mer (final concentration 25 nM) in buffer will be dispensed into a 1,536 Greiner medium-binding black solid plate. Small molecules at final concentrations of 18 nM to 57 uM and positive control phospho-9-mer (sequence: Ac-PPLHSpTAI-NH2) at final concentrations 26 nM to 57 uM and phospho-13-mer (sequence: Ac-[…]pTAI-NH2) at final concentrations of 1 nM to 2.3 uM will be pin-transferred (23 nL) to the plate via a Kalypsys pin-tool robotics equipped with a 1,536-pin array. The reaction plate will be centrifuged for 1 min at 1000 rpm and incubated at room temperature for 10 min. The FITC fluorescence signals will be read using the PerkinElmer ViewLux plate reader at 480 / 20 nm excitation and 540 / 20 nm S and P polarization emission wavelengths. Reagent bottles will be kept submerged into 4 °C recirculating chiller bath and all liquid lines will be covered with aluminum foil to minimize degradation. Library plates will be screened starting from the lowest to the highest concentrations to minimize compound carryover. Vehicle only plates, with DMSO being pin-transferred instead of compound solutions, will be included regularly throughout the screen to record any systematic shifts in assay signal.
% is scaled to controls: 0 for no effect and ±100 for the full control effect; potency is read from the fitted curve at half-maximal effect.

Structure (SMILES) | max response, negative = inhibition | Potency
COc1ccc(CN2C(=O)/C(=C/c3ccncc3)SC2=S)cc1 | inconclusive: -31.5% [inhibitor] | –
CC(C)CNC(=S)N(CCCO)Cc1cc2cc3c(cc2[nH]c1=O)OCCO3 | – | inconclusive: 29.9 µM [inhibitor, single point]
COc1ccccc1CN1CCNC(=O)C1CC(=O)NCc1c(C)n[nH]c1C (centres undefined) | – | inconclusive: 23.8 µM [inhibitor, single point]
Cc1ccc(C)c(Sc2ccc(S(=O)(=O)Nc3ccc(C(=O)O)cc3)cc2)c1 | – | inconclusive: 29.9 µM [inhibitor, single point]
CCOc1ccc(N(C(=O)C2CCCO2)C2C=CS(=O)(=O)C2)cc1 (centres undefined) | – | inconclusive: 29.9 µM [inhibitor, partial curve]
CCOC(=O)C1C(=O)NC(SCC(=O)Nc2nccs2)=C(C#N)C1c1ccccc1OCC (centres undefined) | – | active: 2.67 µM
CNC(=O)/C(C#N)=C/c1cn(CC(=O)OC)c2ccccc12 | inactive: 5.19% | –
COc1cc(/C=N/n2c(C3CCCCC3)n[nH]c2=S)ccc1O | – | inconclusive: 26.7 µM [inhibitor, partial curve]
CC(C)CN(C(=O)CSc1nnc(-c2ccco2)o1)c1c(N)n(Cc2ccccc2)c(=O)[nH]c1=O | – | inconclusive: 26.7 µM [inhibitor, single point]
Cc1cc(NC(=O)c2ccccc2)sc1C | – | inconclusive: 26.7 µM [inhibitor, partial curve]
CCCC1=NN2C(=N)/C(=C\c3ccc(SCc4ccco4)o3)C(=O)N=C2S1 | – | active: 23.8 µM
C#CCOCCOCCOCCNc1nc(N2CCN(C(=O)[C@H](CCCCN)n3cc([C@@H](N)[C@H](C)CC)nn3)CC2)nc(N2CCN(C(=O)[C@H](CCC(=O)O)n3cc([C@@H](N)CCSC)nn3)CC2)n1 | inactive: -6.88% | –
Cc1ccc(-n2c(SCC(=O)NCc3ccco3)nc3nc4c(cc3c2=O)COC(C)(C)C4)cc1 | inactive: -13.5% | –
CC1=CC(C)(C)C(C(=O)O)C(C(=O)O)C1 (centres undefined) | – | inconclusive: 33.6 µM [inhibitor, partial curve, poor fit]
CCOC(=O)C1CCCN(C(=O)c2ccc(S(=O)(=O)N3CCOCC3)cc2)C1 (centres undefined) | inactive: -8.49% | –
CCN(CC(=O)Nc1c(F)cccc1F)C(=O)c1cccc(-n2cccc2)c1 | – | inconclusive: 29.9 µM [inhibitor, partial curve]
COC(=O)C1=CN(C)C=C(C(=O)OC)C1c1ccc(Cl)cc1Cl | inactive: 2.45% | –
C[C@H]1CN([C@@H](C)CO)C(=O)CCCn2cc(nn2)CO[C@@H]1CN(C)S(=O)(=O)c1ccc(C#N)cc1 | inactive: -23.5% | –
CN(C)CCN(C(=O)c1ccc(S(=O)(=O)N(C)C)cc1)c1nc2cc3c(cc2s1)OCCO3 | – | inconclusive: 8.44 µM [inhibitor, single point]
Oc1c(Br)cc(Br)cc1C=Nc1cccnc1 | – | inconclusive: 26.7 µM [inhibitor, partial curve]
COc1ccc(OC)c(S(=O)(=O)NCCC(C)C)c1 | – | inconclusive: 23.8 µM [inhibitor, single point]
Cc1cc(C(=O)CCl)c(C)n1CCc1ccc(Cl)cc1 | – | inconclusive: 29.9 µM [inhibitor, partial curve]

Structure (SMILES) | max response, negative = inhibition | Potency
COc1ccc(CNc2nc(NCc3ccc(OC)cc3)n(C(=O)c3ccccc3[N+](=O)[O-])n2)cc1 | inactive: -9.8% | –
N#Cc1c(N2CCN(c3ccc([N+](=O)[O-])cc3)CC2)[n+](=O)c2ccc(Cl)cc2n1[O-] | inactive: -15.8% | –
COc1ccc(OC)c(NC(=O)CSc2nnc(C3CCCCC3)o2)c1 | – | active: 23.8 µM
CC1(C)CC(=O)C2=C(C1)N=C1SCCC(=O)N1C2c1cccc([N+](=O)[O-])c1 (centres undefined) | inactive: -8.4% | –
O=C(Nc1ccc(Cl)c(Cl)c1)OCCNC(=O)c1ccncc1 | inactive: 8.6% | –
CC(=O)Nc1ccc(NC(=O)CSc2nnc(NC(=O)c3ccc(Br)o3)s2)cc1 | – | inconclusive: 26.7 µM [inhibitor, partial curve]
Cc1cccc(-c2nc(CS(=O)CC(=O)NCCc3ccccc3)c(C)o2)c1 (centres undefined) | – | inconclusive: 26.7 µM [inhibitor, single point]
O=C1CN(C(=O)COC(=O)c2ccc([N+](=O)[O-])s2)c2ccccc2N1 | inactive: -4.51% | –
C=CCOc1c(Br)cc(CNn2cn[nH]c2=S)cc1OC | inactive: -14.9% | –
NC(=O)C1CCN(C2=C(Cl)C(=O)c3ccccc3C2=O)CC1 | – | active: 26.7 µM
CCOc1ccc(C2CC(c3cccc(OC)c3)n3nc(N)nc3N2)cc1 (centres undefined) | – | inconclusive: 23.8 µM [inhibitor, partial curve]
N#Cc1nc(-c2ccco2)oc1NCCc1ccccc1 | inactive: -0.398% | –
CC1CCN(S(=O)(=O)c2ccc(N/N=C(/C#N)C(N)=O)cc2)CC1 | inactive: -8.78% | –
COC(=O)NNC(=S)Nc1cc(OC)ccc1OC | – | inconclusive: 23.8 µM [inhibitor, single point]
NS(=O)(=O)c1ccc(CCNCc2cc(Br)ccc2OCc2ccccc2)cc1 | inactive: 2.54% | –
COc1cccc(COC(=O)C2CC(=O)N(Cc3ccc(C)cc3)C2)c1OC (centres undefined) | inactive: -7.22% | –
O=C(Nc1ccccc1F)C(=Cc1sc(N2CCOCC2)nc1-c1ccccc1)C(=O)Nc1ccccc1F | – | inconclusive: 16.8 µM [inhibitor, partial curve]
CN(C)c1ccc(P(=O)(OC2CCCCC2)C(O)c2ccccn2)cc1 (centres undefined) | inactive: -7.58% | –
O=c1c(N2CCOCC2)nsnc1N1CCOCC1 | – | inconclusive: 23.8 µM [inhibitor, partial curve]
O=C(N/N=C/c1cc([N+](=O)[O-])cc(Br)c1O)C12CC3CCC(CC(C3)C1)C2 | inactive: -24.4% | –
COc1cc(OC)cc(C(=O)NCC(=O)OCC(=O)N2CCc3ccccc32)c1 | – | active: 26.7 µM
CC1=C(/C=C/C(C)=C/C=C/C(C)=C/C(=O)Nc2ccc(O)cc2)C(C)(C)CCC1 | inactive: -5.83% and inactive: -9.38% | –
